Experimental data taken from PubChem BioAssay AID2417 (National Center for Advancing Translational Sciences (NCATS), 2010).
The campaign covered roughly 140,000 compounds. About 4,300 (3.1%) were called active. This list was built around the results that the source calls inconclusive (neither active nor inactive); the mix of calls is not that of the screen.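 How the source made its calls: active means readout at or below -70, meaning at least 70% loss of cells showing the perinucleolar compartment, a nuclear body marking cancer cells; inconclusive means readout between -30 and a set limit; inactive means the rest.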

Assay: High Content Assay for Compounds that inhibit the Assembly of the Perinucleolar Compartment;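 further: plate controls were DMSO wells for no effect and camptothecin positive control wells for full effect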
Conditions: PC3M PTB-GFP, PNC prevalence imaging, 16 h; at 10 µM; stronger effect = lower value
In short: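 Compounds are pinned in duplicate onto adhered PC3M cells stably expressing GFP-tagged PTB and incubated 16 h at 37 C. Cells are then fixed, nuclei stained with Hoechst, and PNC-positive cells counted.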
With CCn1c(SCC(=O)NCc2ccco2)nnc1C(C)C the activity change (PNC), negative = inhibition was inconclusive: -43.7%. With Cc1ccc2nc(N3CCN(C(=O)c4cccs4)CC3)c(C#N)cc2c1 the activity change (PNC), negative = inhibition was inactive: -21.4%. In the case of CC(C)CCNC(=O)COc1ccc2c(c1)C(=O)CC(C)(C)O2, the activity change (PNC), negative = inhibition is reported as inactive: -1.28%. For O=c1oc2ccccc2n1CSc1nc2ccccc2s1, the activity change (PNC), negative = inhibition was inconclusive: -55.8%. For O=c1c2c3nc4ccccc4nc3n(/N=C/c3cccs3)c2ncn1-c1ccccc1, the activity change (PNC), negative = inhibition was inactive: 9.56%. For Cc1cccc(C)c1NC(=O)COC(=O)CCc1ccc(S(=O)(=O)N2CCCCC2)cc1, the activity change (PNC), negative = inhibition was inconclusive: -60.3%. In the case of O=C(O)c1cc(-c2ccco2)[nH]n1, the activity change (PNC), negative = inhibition is reported as active: -89%. In the case of Cc1ccc(S(=O)(=O)NCc2ccc(C(=O)N3CCN(c4ccccn4)CC3)cc2)cc1, the activity change (PNC), negative = inhibition is reported as inconclusive: -57.2%. For Cc1ccccc1NC(=O)c1ccc(NS(=O)(=O)c2cc(C(C)(C)C)cc(C)c2C)cc1, the activity change (PNC), negative = inhibition was inconclusive: -41.2%. With CC(C)NS(=O)(=O)c1ccc(OCC(=O)NCCC2=CCCCC2)cc1 the activity change (PNC), negative = inhibition was inactive: -24.6%. In the case of Cc1ccc(S(=O)(=O)/C(C#N)=C/c2c(N3CC(C)OC(C)C3)nc3c(C)cccn3c2=O)cc1 (configuration not stated), the activity change (PNC), negative = inhibition is reported as inconclusive: -32.3%. In the case of CCS(=O)(=O)N1CCC(C(=O)NCc2cc(OC)ccc2OC)CC1, the activity change (PNC), negative = inhibition is reported as inconclusive: -52.5%. For O=C(N/N=C/c1ccc2c(c1)OCO2)/C(=C/c1ccc2c(c1)OCO2)NC(=O)c1ccccc1, the activity change (PNC), negative = inhibition was inconclusive: -50.9%. With O=C(O)CCC(=O)NNC(=O)c1cccc(Br)c1 the activity change (PNC), negative = inhibition was inactive: 23.7%. With Cc1ccc2nc(NCc3ccccc3)[nH]c2c1 the activity change (PNC), negative = inhibition was active: -103%. In the case of COC(=O)CN1C(=O)C(O)(CC(=O)c2ccccc2)c2ccccc21 (configuration not stated), the activity change (PNC), negative = inhibition is reported as inconclusive: -52.9%. For C#CCSc1nc(-c2cccs2)ccc1C#N, the activity change (PNC), negative = inhibition was inconclusive: -49%. For Cn1c(=O)[nH]c(=O)c2c1nc(CN1CCOCC1)n2CCCc1ccccc1, the activity change (PNC), negative = inhibition was inconclusive: -58.3%. With CCCCC(=O)Nc1nc(C)c(-c2csc(Nc3cc(OC)ccc3OC)n2)s1 the activity change (PNC), negative = inhibition was inactive: -16.3%. For COc1ccc(N2C(=O)C3CCCN3C2c2cc(OC)c(OC)c(OC)c2)cc1 (configuration not stated), the activity change (PNC), negative = inhibition was inconclusive: -36.7%. For CCCOP(=O)(OCCC)c1nc(-c2ccccc2)oc1NCc1ccccc1, the activity change (PNC), negative = inhibition was inconclusive: -50.1%. With CN1C(=O)C(O)(CC(=O)c2cccnc2)c2ccccc21 (configuration not stated) the activity change (PNC), negative = inhibition was inconclusive: -50.9%. For O=C(Nc1ccc(Cl)c(Cl)c1)Nc1nnc(-c2ccncc2)s1, the activity change (PNC), negative = inhibition was inconclusive: -35.1%. In the case of COc1cccc(NC(=O)CN2CCN(c3ccccc3F)CC2)c1, the activity change (PNC), negative = inhibition is reported as inconclusive: -50%. For CC(=O)OC[C@H]1O[C@@H](n2ncc(=O)[nH]c2=O)[C@H](OC(C)=O)[C@@H]1OC(C)=O, the activity change (PNC), negative = inhibition was inconclusive: -43.8%. For O=C(COC(=O)C1(c2ccc(F)cc2)CCCC1)NC1CC1, the activity change (PNC), negative = inhibition was inactive: 13.3%. For O=C(O)CCCC(=O)Nc1ccc(C(=O)N2CCCCC2)cc1, the activity change (PNC), negative = inhibition was inactive: -15.8%. In the case of Cc1c(NC(=O)c2cccc(S(=O)(=O)N3CCOCC3)c2)c(=O)n(-c2ccccc2)n1C, the activity change (PNC), negative = inhibition is reported as inconclusive: -47.8%. With FC(F)(F)c1cnc(-c2cnc3c(-c4ccc(Cl)cc4)cnn3c2)c(Cl)c1 the activity change (PNC), negative = inhibition was inconclusive: -46.6%. With COc1ccccc1CNc1nc2nc3c(c(=O)n2[nH]1)CCC3 the activity change (PNC), negative = inhibition was inconclusive: -46.1%. In the case of N#Cc1c(-c2ccc(Cl)cc2)nc2n(c1=O)CCCS2, the activity change (PNC), negative = inhibition is reported as inconclusive: -35.5%. For N#Cc1ccsc1NC(=O)CN1CCN(c2ccccc2O)CC1, the activity change (PNC), negative = inhibition was inconclusive: -39%. For CC(c1nnnn1C1CCCCC1)N(Cc1ccccc1)Cc1cccnc1 (configuration not stated), the activity change (PNC), negative = inhibition was active: -100%. For CCOC(=O)Cc1csc(NC(=O)COc2ccc(N(C)S(=O)(=O)c3ccc(C)cc3)cc2)n1, the activity change (PNC), negative = inhibition was inconclusive: -40.6%. For O=C1c2ccccc2C(=O)N1Cc1nn2c(-c3ccc(Cl)cc3)nnc2s1, the activity change (PNC), negative = inhibition was inconclusive: -55%. For COc1cccc(-c2noc(C(C)n3nc(C)c([N+](=O)[O-])c3C)n2)c1 (configuration not stated), the activity change (PNC), negative = inhibition was inconclusive: -62.4%. For N/C(COc1cccc(Cl)c1)=N\NS(=O)(=O)c1ccccc1, the activity change (PNC), negative = inhibition was inconclusive: -68.3%. In the case of CCN1CCN(c2ncc(C(=O)Nc3cc(Cl)ccc3OC)c3ccccc23)CC1, the activity change (PNC), negative = inhibition is reported as inconclusive: -48.2%. In the case of COc1cc(NC(=S)Nc2cccnc2)cc(OC)c1OC, the activity change (PNC), negative = inhibition is reported as inactive: 18.4%. In the case of O=C(O)CSCC(=O)Nc1ccc(C2CCCCC2)cc1, the activity change (PNC), negative = inhibition is reported as inconclusive: -53.5%. With O=C(NCc1ccco1)c1c(F)cccc1Cl the activity change (PNC), negative = inhibition was inactive: -18.9%. For CC(C)(/C=N/NC(=O)CSCc1ccccc1Cl)CCC#N, the activity change (PNC), negative = inhibition was inconclusive: -46.9%. With O=C(Oc1cccc(Oc2ccccc2)c1)N1CCOCC1 the activity change (PNC), negative = inhibition was inconclusive: -44.5%. For COc1cccc(CNC(=O)c2ccc3nc[nH]c3c2)c1, the activity change (PNC), negative = inhibition was inactive: 44.7%. In the case of O=C(CNC(=O)c1cccs1)NCCN1CCN(Cc2ccccc2)CC1, the activity change (PNC), negative = inhibition is reported as inconclusive: -31.3%. For CCC1(CC)NC(=O)N(CC(=O)Nc2sc3c(c2C(N)=O)CCC3)C1=O, the activity change (PNC), negative = inhibition was inactive: 26.9%. With Cc1ccc(C(=O)N/C(=C/c2ccco2)C(=O)Nc2cccc(C)c2)cc1 the activity change (PNC), negative = inhibition was inconclusive: -37.9%. With CCOc1ccc(-n2nc3c(SCCN4CCCC4)nnc(C)c3c2C)cc1 the activity change (PNC), negative = inhibition was inconclusive: -47.4%. In the case of COc1ccc(CCNC(=O)COC(=O)/C=C/c2ccc(OC)c(OC)c2)cc1, the activity change (PNC), negative = inhibition is reported as inactive: -5.49%. For COc1ccccc1-c1noc(-c2cccnc2)n1, the activity change (PNC), negative = inhibition was inconclusive: -53.7%. For Cc1csc(NC(=O)CNS(=O)(=O)c2cccs2)n1, the activity change (PNC), negative = inhibition was inconclusive: -30.2%. For Cc1ccc(C(=O)OC2OC(=O)C(Cl)=C2N2CCOCC2)cc1 (configuration not stated), the activity change (PNC), negative = inhibition was inconclusive: -38.7%. In the case of CC(C)Cc1nnc(NC(=O)CCC(=O)N2CCN(c3ccccn3)CC2)s1, the activity change (PNC), negative = inhibition is reported as inactive: 36%. In the case of CCC(=O)Nc1cc(C)c(NC(=O)c2ccccc2OC)cn1, the activity change (PNC), negative = inhibition is reported as inconclusive: -47.9%. With CCC(=O)Nc1ccccc1C(=O)OCc1ccc(C(=O)c2ccccc2)cc1 the activity change (PNC), negative = inhibition was inactive: 3.68%. For O=C(c1sc2cccc(F)c2c1Cl)N1CCN(c2ncccn2)CC1, the activity change (PNC), negative = inhibition was inactive: 29.3%. In the case of Cc1ccc(N/N=C(\C#N)C(N)=S)c(C)c1, the activity change (PNC), negative = inhibition is reported as inactive: -5.91%.
